At least one peptide structure holds a part that was inferred or is arguable (an end, a ring closure or a residue).
Assays:
Assay type in all cases: in vivo, miniature swine (Gottingen)
[1] = test system: lung tissue; assay: Histopathological examination of punctured lung; details: animal necropsied in surgery; FIG. 2
[2] = test system: pulmonary air leak; assay: Miniature swine model of pulmonary air leak: occlusion by 2.5% aqueous peptide solution
[3] = test system: lung; assay: Chest X-ray examination; details: from the day of operation to the day of necropsy; FIG. 1

## CC(=O)N[C@@H](CCCNC(=N)N)C(=O)N[C@@H](C)C(=O)N[C@@H](CC(=O)O)C(=O)N[C@@H](C)C(=O)N[C@@H](CCCNC(=N)N)C(=O)N[C@@H](C)C(=O)N[C@@H](CC(=O)O)C(=O)N[C@@H](C)C(=O)N[C@@H](CCCNC(=N)N)C(=O)N[C@@H](C)C(=O)N[C@@H](CC(=O)O)C(=O)N[C@@H](C)C(=O)N[C@@H](CCCNC(=N)N)C(=O)N[C@@H](C)C(=O)N[C@@H](CC(=O)O)C(=O)N[C@@H](C)C(N)=O [RADA16, Ac-(RADA)4-CONH2]
[1]
  histopathological examination of air leak site: occlusion of pulmonary air leak by self-assembling peptide hydrogel was identified
[2]; 10-15 mL of 2.5% (w/v) hydrogel applied to 18 G needle puncture in pulmonary lobe, occlusion confirmed up to 20 cm H2O internal pressure
  occlusion of pulmonary air leakage: effective to occlude the pulmonary air leakage
[2]; all animals
  pulmonary air leak during and following treatment: not found in any of the animals
[3]
  X-ray examination of lung: no abnormality was found in lung

— patent US20140329914A1, “Amphiphilic Peptides for Thoracic Air Leakage Occlusion” (3-D Matrix Ltd., priority 2011, published 2014)
